# The campaign covered roughly 330,000 compounds. About 7,700 (2.3%) were called active. The inconclusive results got no clear call from the source; some entries with a clear call stand among them for comparison. The call rests on the fitted dose curve; in most records, active means well fitted inhibition curve with a large enough effect; inconclusive means small, poorly fitted or top-dose-only effect, or effect the other way; inactive means flat fitted curve, though single readings scatter. A potency beside an inconclusive call is a rough fit, not a confirmed value.
# Assay: qHTS screen for small molecules that inhibit ELG1-dependent DNA repair in human embryonic kidney (HEK293T) cells expressing luciferase-tagged ELG1; further: nearly all actives have a fitted effect of over 55% in size
# Conditions: HEK293T ELG1-luciferase reporter, luminescence, 16 h, DNA damage induced by 5-fluorouridine; activity change, negative = inhibition: at 46.1 µM (top of the series)
# How it was run: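 HEK293T cells expressing luciferase-tagged ELG1 (2,000/well) received 5-Fluorouridine plus compound or DMSO for 16 hr at 37 °C. Luciferase was read by ONE-Glo luminescence after 30 min at room temperature.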
# On the % scale 0 is the no-effect control and ±100 the full control effect; potency means the concentration at half of the fitted maximal effect.
Structure (SMILES),Potency,"activity change, negative = inhibition"
CCCCSc1nnc(CCCCCNC(=O)OC(C)(C)C)o1,"inconclusive: 25.9 µM [inhibitor, single point]",–
CN1CCN(c2nc(-c3cccc([N+](=O)[O-])c3)nc3ccccc23)CC1,"inconclusive: 10.3 µM [inhibitor, partial curve]",–
CC1Cc2cc(C(=O)O)ccc2O1 (stereo not drawn),"inconclusive: 6.51 µM [inhibitor, single point]",–
COCCn1c(C)cc(C(=O)COc2ccc(C)nc2[N+](=O)[O-])c1C,–,inactive: 26.5%
Cc1ccc(NC(=O)Nc2ccc3c(c2)C(=O)OC3)cc1Cl,"inconclusive: 5.17 µM [activator, full curve, poor fit]",–
CCOC(=O)c1c(C)n(C)c2ccc(OC)c(NC(=O)c3cccs3)c12,"inconclusive: 16.4 µM [inhibitor, partial curve, poor fit]",–
Cc1ccc(OCCOc2ccc(Br)cc2)c([N+](=O)[O-])n1,"inconclusive: 16.4 µM [activator, partial curve]",–
CCC(=O)Nc1ccc(NC(=O)c2ccco2)c(OC)c1,"inconclusive: 6.51 µM [activator, single point]",–
CC1CCCN(S(=O)(=O)c2cccc(C(=O)OCC(=O)N(C)Cc3c(F)cccc3Cl)c2)C1 (stereo not drawn),"inconclusive: 1.64 µM [inhibitor, partial curve, poor fit]",–
Cc1cccc2sc(NC(=O)CSc3nc4ccccc4o3)nc12,"inconclusive: 29.1 µM [inhibitor, single point]",–
O=C(c1ccc(Cl)cc1)C(CN1CCCCC1)c1ccccc1 (stereo not drawn),"inconclusive: 29.1 µM [inhibitor, single point]",–
COC(=O)c1ccc(OCC(=O)c2ccc(C)c(C)c2)cc1,"inconclusive: 23.1 µM [activator, partial curve, poor fit]",–
CNc1cc(N2CCCC2)ccc1[N+](=O)[O-],"inconclusive: 29.1 µM [activator, partial curve, poor fit]",–
O=C(Nc1nccs1)c1ccc(-c2ccc(Cl)cc2Cl)o1,"inconclusive: 4.61 µM [activator, partial curve]",–
Cc1ccsc1C(=O)OCC(=O)Nc1sccc1C(N)=O,"inconclusive: 8.2 µM [activator, partial curve]",–
Cc1cccc(NC(=O)c2ccccn2)c1C,"inconclusive: 20.6 µM [activator, partial curve]",–
Cc1cc(NC(=O)c2cc(-c3ccncc3)nc3ccccc23)ccc1Br,"inconclusive: 18.3 µM [inhibitor, single point]",–
Cn1cc([N+](=O)[O-])c(C(=O)N/N=C/c2ccc3c(c2)OCO3)n1,"inconclusive: 29.1 µM [activator, single point]",–
CC(C)(C)c1ccc(C(=O)NCCC(=O)NCc2ccco2)cc1,active: 5.8 µM,–
Cc1cc(O)ccc1N/C=C1\CCCC1=O,"inconclusive: 20.6 µM [activator, partial curve]",–
COc1ccccc1C/C(N)=N/OC(=O)COc1ccc(C)cc1,"inconclusive: 10.3 µM [activator, partial curve, poor fit]",–
O=c1[nH]c(=O)n(-c2ccccc2)c2c1C(C(F)(F)F)(C(F)(F)F)N=C(C1CCCCC1)N2,–,inactive: -11.1%

# Quoted from the entries so far (2 entries):
Structure (SMILES),Potency,"activity change, negative = inhibition"
COCCn1c(C)cc(C(=O)COc2ccc(C)nc2[N+](=O)[O-])c1C,–,inactive: 26.5%
Cc1ccc(NC(=O)Nc2ccc3c(c2)C(=O)OC3)cc1Cl,"inconclusive: 5.17 µM [activator, full curve, poor fit]",–

# Remaining list, next part:

Structure (SMILES),Potency,"activity change, negative = inhibition"
COc1ccc(C(=O)c2c(C)c3ccccc3n2CC(O)CNC(C)C)cc1 (stereo not drawn),–,inactive: -23.8%
CCc1ccc(OCCNc2cc(N3CCNC(C)C3)ccc2[N+](=O)[O-])cc1 (stereo not drawn),–,inactive: -3.86%
CCN(CC)S(=O)(=O)c1cccc(NC(=O)CSc2nc3ccccc3[nH]2)c1,active: 23.1 µM,–
Cc1nc(N2CCCCC2)c2c(C)c(C(=O)Nc3cccc(C(F)(F)F)c3)sc2n1,"inconclusive: 13 µM [inhibitor, partial curve]",–
CC1=C(C(N)=O)C(c2ccccc2[N+](=O)[O-])n2ncnc2N1 (stereo not drawn),–,inactive: -13.8%
CC(C)OC(=O)CN1CCN(c2ccc(Cl)cc2)CC1,"inconclusive: 29.1 µM [inhibitor, single point]",–
O=C(COc1ccccc1)N1CCc2ccccc21,"inconclusive: 14.6 µM [activator, partial curve]",–
CSc1cccc(CNC(=O)C2CCC(=O)N(CC3CCCCC3)C2)c1 (stereo not drawn),–,inactive: -23.2%
Cc1[nH]n(-c2ncc(-c3ccc(Cl)cc3)s2)c(=O)c1C(c1ccc(Cl)cc1)C(C#N)C#N (stereo not drawn),"inconclusive: 14.6 µM [activator, partial curve]",–
COc1ccc(-c2cnc3ccccc3n2)cc1NC(=O)CNC(=O)c1ccccc1,"inconclusive: 1.64 µM [activator, partial curve]",–
Clc1cccc(Nc2nc(-c3ccncc3)cs2)c1,–,inactive: -1.74%
CN(CC(=O)Nc1ccccc1Br)C(=O)Cn1[nH]c(=O)c2ccccc2c1=O,"inconclusive: 8.2 µM [activator, partial curve, poor fit]",–
Cc1cc(C)nc(NC(=S)Nc2ccc(Br)cc2Cl)c1,–,inactive: 12.6%
CS(=O)(=O)c1ccccc1C(=O)N(CCC1=CCCCC1)c1c(N)n(Cc2ccccc2)c(=O)[nH]c1=O,"inconclusive: 23.1 µM [inhibitor, single point]",–
Cc1c(C)c(C)c(CO/N=C/c2cccs2)c(C)c1C,"inconclusive: 29.1 µM [inhibitor, single point]",–
O=c1[nH]c(C2CCCN(S(=O)(=O)c3ccccc3Cl)C2)nc2c1nnn2Cc1ccc2c(c1)OCCO2 (stereo not drawn),"inconclusive: 18.3 µM [inhibitor, single point]",–
CCOc1ccc(N(CC(=O)N2CCN(Cc3ccccc3)CC2)S(C)(=O)=O)cc1,–,inactive: -13.8%
O=C(Nc1ccc(N2CCOCC2)cc1)c1cn2ccccc2n1,"inconclusive: 0.326 µM [activator, full curve]",–
CCc1cccc(NS(=O)(=O)c2ccc3c(c2)CCC(=O)N3)c1,"inconclusive: 25.9 µM [inhibitor, single point]",–
O=C(COC(=O)COc1ccc(Cl)cc1Br)NC1CC1,"inconclusive: 16.4 µM [activator, partial curve, poor fit]",–
O=C(Nc1ccccc1)N(C1=NCCC1)c1ccccc1,"inconclusive: 20.6 µM [activator, single point]",–
